# This continues a long series; more values of the same kind are listed elsewhere.
# Key:
# Assay type in all cases: cell-based
# Settings in all cases: U-87MG ATCC
# [1] = Inhibition of RTK/PI3K/AKT/mTOR signaling in human U87 cells assessed as up regulation of SLC50A1 gene expression at cytotoxic IC50 measured after 48 hrs relative to control
# [2] = Inhibition of RTK/PI3K/AKT/mTOR signaling in human U87 cells assessed as down regulation of LHFP gene expression at cytotoxic IC50 measured after 48 hrs relative to control
# [3] = Inhibition of RTK/PI3K/AKT/mTOR signaling in human U87 cells assessed as down regulation of SIK2 gene expression at cytotoxic IC50 measured after 48 hrs relative to control
# [4] = Inhibition of RTK/PI3K/AKT/mTOR signaling in human U87 cells assessed as up regulation of adhesion G protein-coupled receptor L1 gene expression at cytotoxic IC50 measured after 48 hrs relative to control
# [5] = Inhibition of RTK/PI3K/AKT/mTOR signaling in human U87 cells assessed as up regulation of ESRP1 gene expression at cytotoxic IC50 measured after 48 hrs relative to control
# [6] = Inhibition of RTK/PI3K/AKT/mTOR signaling in human U87 cells assessed as down regulation of CRTC2 gene expression at cytotoxic IC50 measured after 48 hrs relative to control
# [7] = Inhibition of RTK/PI3K/AKT/mTOR signaling in human U87 cells assessed as down regulation of MYBL1 gene expression at cytotoxic IC50 measured after 48 hrs relative to control
# [8] = Inhibition of RTK/PI3K/AKT/mTOR signaling in human U87 cells assessed as up regulation of SGTB gene expression at cytotoxic IC50 measured after 48 hrs relative to control
# [9] = Inhibition of RTK/PI3K/AKT/mTOR signaling in human U87 cells assessed as up regulation of dynein axonemal assembly factor 5 gene expression at cytotoxic IC50 measured after 48 hrs relative to control
# [10] = Inhibition of RTK/PI3K/AKT/mTOR signaling in human U87 cells assessed as up regulation of basic helix-loop-helix family member e40 gene expression at cytotoxic IC50 measured after 48 hrs relative to control
# [11] = Inhibition of RTK/PI3K/AKT/mTOR signaling in human U87 cells assessed as down regulation of COL4A3BP gene expression at cytotoxic IC50 measured after 48 hrs relative to control
# [12] = Inhibition of RTK/PI3K/AKT/mTOR signaling in human U87 cells assessed as down regulation of TRAPPC9 gene expression at cytotoxic IC50 measured after 48 hrs relative to control
# [13] = Inhibition of RTK/PI3K/AKT/mTOR signaling in human U87 cells assessed as up regulation of signal sequence receptor subunit 2 gene expression at cytotoxic IC50 measured after 48 hrs relative to control
# [14] = Inhibition of RTK/PI3K/AKT/mTOR signaling in human U87 cells assessed as up regulation of FRAS1 gene expression at cytotoxic IC50 measured after 48 hrs relative to control
# [15] = Inhibition of RTK/PI3K/AKT/mTOR signaling in human U87 cells assessed as down regulation of FAM118B gene expression at cytotoxic IC50 measured after 48 hrs relative to control
# [16] = Inhibition of RTK/PI3K/AKT/mTOR signaling in human U87 cells assessed as up regulation of transmembrane protein 53 gene expression at cytotoxic IC50 measured after 48 hrs relative to control
# [17] = Inhibition of RTK/PI3K/AKT/mTOR signaling in human U87 cells assessed as up regulation of adenine phosphoribosyltransferase gene expression at cytotoxic IC50 measured after 48 hrs relative to control
# [18] = Inhibition of RTK/PI3K/AKT/mTOR signaling in human U87 cells assessed as up regulation of casein kinase 1 gamma 2 gene expression at cytotoxic IC50 measured after 48 hrs relative to control
# [19] = Inhibition of RTK/PI3K/AKT/mTOR signaling in human U87 cells assessed as down regulation of GOLGA7 gene expression at cytotoxic IC50 measured after 48 hrs relative to control
# [20] = Inhibition of RTK/PI3K/AKT/mTOR signaling in human U87 cells assessed as down regulation of CDKN2D gene expression at cytotoxic IC50 measured after 48 hrs relative to control
# [21] = Inhibition of RTK/PI3K/AKT/mTOR signaling in human U87 cells assessed as down regulation of CDK7 gene expression at cytotoxic IC50 measured after 48 hrs relative to control
# [22] = Inhibition of RTK/PI3K/AKT/mTOR signaling in human U87 cells assessed as down regulation of DDX24 gene expression at cytotoxic IC50 measured after 48 hrs relative to control
# [23] = Inhibition of RTK/PI3K/AKT/mTOR signaling in human U87 cells assessed as down regulation of TUFT1 gene expression at cytotoxic IC50 measured after 48 hrs relative to control
# [24] = Inhibition of RTK/PI3K/AKT/mTOR signaling in human U87 cells assessed as up regulation of tRNA splicing endonuclease subunit 34 gene expression at cytotoxic IC50 measured after 48 hrs relative to control
# [25] = Inhibition of RTK/PI3K/AKT/mTOR signaling in human U87 cells assessed as up regulation of transmembrane channel like 4 gene expression at cytotoxic IC50 measured after 48 hrs relative to control
# [26] = Inhibition of RTK/PI3K/AKT/mTOR signaling in human U87 cells assessed as up regulation of apolipoprotein B mRNA editing enzyme catalytic subunit 3C gene expression at cytotoxic IC50 measured after 48 hrs relative to control
# [27] = Inhibition of RTK/PI3K/AKT/mTOR signaling in human U87 cells assessed as down regulation of FAM126B gene expression at cytotoxic IC50 measured after 48 hrs relative to control
# [28] = Inhibition of RTK/PI3K/AKT/mTOR signaling in human U87 cells assessed as up regulation of follistatin like 3 gene expression at cytotoxic IC50 measured after 48 hrs relative to control
# [29] = Inhibition of RTK/PI3K/AKT/mTOR signaling in human U87 cells assessed as down regulation of SNX19 gene expression at cytotoxic IC50 measured after 48 hrs relative to control
# [30] = Inhibition of RTK/PI3K/AKT/mTOR signaling in human U87 cells assessed as up regulation of intraflagellar transport 140 gene expression at cytotoxic IC50 measured after 48 hrs relative to control
# [31] = Inhibition of RTK/PI3K/AKT/mTOR signaling in human U87 cells assessed as up regulation of SMPDL3B gene expression at cytotoxic IC50 measured after 48 hrs relative to control
# [32] = Inhibition of RTK/PI3K/AKT/mTOR signaling in human U87 cells assessed as down regulation of ARID3B gene expression at cytotoxic IC50 measured after 48 hrs relative to control
smiles,measurement,setting,value
CC(=O)C(=NNc1ccccc1C#N)C(C)=O,log2FC,[1],0.597
same,log2FC,[2],-3.33
same,log2FC,[3],-0.822
same,log2FC,[4],1.28
same,log2FC,[5],0.609
same,log2FC,[6],-0.521
same,log2FC,[7],-2.17
same,log2FC,[8],0.596
same,log2FC,[9],1.02
same,log2FC,[10],0.671
same,log2FC,[11],-1.01
same,log2FC,[12],-0.605
same,log2FC,[13],0.754
same,log2FC,[14],1.73
same,log2FC,[15],-0.857
same,log2FC,[16],1.38
same,log2FC,[17],0.674
same,log2FC,[18],0.834
same,log2FC,[19],-0.63
same,log2FC,[20],-1.28
same,log2FC,[21],-0.832
same,log2FC,[22],-0.544
same,log2FC,[23],-1.82
same,log2FC,[24],0.654
same,log2FC,[25],1.15
same,log2FC,[26],1.35
same,log2FC,[27],-1.29
same,log2FC,[28],1.36
same,log2FC,[29],-0.601
same,log2FC,[30],0.971
same,log2FC,[31],1.93
same,log2FC,[32],-1.17
